Test results as given in publication PMC8790530.
No constants are given. Whether binding was seen depends on the method and setting. In cells and extracts the contact can be indirect. Some results given as binding are weak or reduced against the parent protein; the word gives no strength. Sequences can lack the tags named with a protein.

The chains behind the UniProt entries cited, without tags or fusion partners.
UniProt Q9UBN7: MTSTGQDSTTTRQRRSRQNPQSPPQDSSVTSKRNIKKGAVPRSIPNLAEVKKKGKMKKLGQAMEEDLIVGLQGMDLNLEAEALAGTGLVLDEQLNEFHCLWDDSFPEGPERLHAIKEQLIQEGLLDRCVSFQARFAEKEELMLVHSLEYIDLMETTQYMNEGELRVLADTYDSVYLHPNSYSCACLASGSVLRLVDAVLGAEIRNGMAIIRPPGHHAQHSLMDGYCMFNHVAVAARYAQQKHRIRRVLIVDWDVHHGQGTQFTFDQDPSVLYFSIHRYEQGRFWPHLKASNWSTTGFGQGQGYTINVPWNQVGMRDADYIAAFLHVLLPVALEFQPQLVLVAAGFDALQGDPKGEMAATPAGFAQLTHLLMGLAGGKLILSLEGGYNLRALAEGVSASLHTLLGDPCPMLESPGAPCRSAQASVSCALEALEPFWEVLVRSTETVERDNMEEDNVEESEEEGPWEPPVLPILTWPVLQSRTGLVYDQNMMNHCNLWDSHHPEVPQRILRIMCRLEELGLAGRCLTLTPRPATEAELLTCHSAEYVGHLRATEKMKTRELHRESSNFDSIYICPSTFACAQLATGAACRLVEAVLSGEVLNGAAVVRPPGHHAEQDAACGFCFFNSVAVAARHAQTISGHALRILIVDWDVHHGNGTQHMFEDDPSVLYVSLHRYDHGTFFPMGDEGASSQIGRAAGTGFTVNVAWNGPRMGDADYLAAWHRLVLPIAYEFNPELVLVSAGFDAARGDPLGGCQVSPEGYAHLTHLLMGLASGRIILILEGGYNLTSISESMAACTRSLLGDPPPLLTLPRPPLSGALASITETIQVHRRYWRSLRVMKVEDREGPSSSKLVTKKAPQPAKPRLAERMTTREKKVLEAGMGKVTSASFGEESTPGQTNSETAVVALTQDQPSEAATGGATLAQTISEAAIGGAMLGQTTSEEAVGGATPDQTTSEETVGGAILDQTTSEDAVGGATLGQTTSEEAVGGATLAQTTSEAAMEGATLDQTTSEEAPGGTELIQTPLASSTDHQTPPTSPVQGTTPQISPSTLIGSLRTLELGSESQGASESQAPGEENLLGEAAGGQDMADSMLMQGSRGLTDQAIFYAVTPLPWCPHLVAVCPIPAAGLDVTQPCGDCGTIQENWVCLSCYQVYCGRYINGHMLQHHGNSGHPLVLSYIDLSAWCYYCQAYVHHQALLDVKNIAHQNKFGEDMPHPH

B1: GFP-(GA)50 (protein)
chain: GAGAGAGAGAGAGAGAGAGAGAGAGAGAGAGAGAGAGAGAGAGAGAGAGAGAGAGAGAGAGAGAGAGAGAGAGAGAGAGAGAGAGAGAGAGAGAGAGAGA
B2: GFP-(GR)50 (protein)
chain: GRGRGRGRGRGRGRGRGRGRGRGRGRGRGRGRGRGRGRGRGRGRGRGRGRGRGRGRGRGRGRGRGRGRGRGRGRGRGRGRGRGRGRGRGRGRGRGRGRGR
B3: GFP-(GP)47 (protein)
chain: GPGPGPGPGPGPGPGPGPGPGPGPGPGPGPGPGPGPGPGPGPGPGPGPGPGPGPGPGPGPGPGPGPGPGPGPGPGPGPGPGPGPGPGPGPGPGP

Each binder was assayed against Myc-tagged wild-type HDAC6 (histone deacetylase 6) (human) (UniProt Q9UBN7) (assay: co-IP; HEK293T cells co-transfected for 48 h with Myc-tagged HDAC6WT and GFP or a GFP-tagged DPR construct; lysed in co-IP buffer (50 mM Tris-HCl, pH 7.4, 300 mM NaCl, 1% Triton X-100, 5 mM EDTA); anti-Myc antibody overnight at 4°C, captured on Dynabeads Protein G; Western blot for myc or GFP).

| binding | Binder |
| --- | --- |
| binds | B1 |
| no binding | B2 |
| no binding | B3 |
